In this assay the target is heat shock cognate 70 kDa protein (HSC70) (human (endogenous in Huh-7.5)) (UniProt P11142). Briefly: co-IP; Huh-7.5 cells transfected with pCAG-FLAG-DGAT1 or pCAG-FLAG-DGAT1 Q149A, harvested 48 h after transfection; lysate precipitated with anti-HSC70 mouse mAb; endogenous HSC70 is the bait; blot with anti-FLAG mAb.

Chains of the proteins cited; added tags and fusions are not shown. Lines headed by an entry give the natural chain unless they say otherwise; changes in a name come on top.
UniProt P11142: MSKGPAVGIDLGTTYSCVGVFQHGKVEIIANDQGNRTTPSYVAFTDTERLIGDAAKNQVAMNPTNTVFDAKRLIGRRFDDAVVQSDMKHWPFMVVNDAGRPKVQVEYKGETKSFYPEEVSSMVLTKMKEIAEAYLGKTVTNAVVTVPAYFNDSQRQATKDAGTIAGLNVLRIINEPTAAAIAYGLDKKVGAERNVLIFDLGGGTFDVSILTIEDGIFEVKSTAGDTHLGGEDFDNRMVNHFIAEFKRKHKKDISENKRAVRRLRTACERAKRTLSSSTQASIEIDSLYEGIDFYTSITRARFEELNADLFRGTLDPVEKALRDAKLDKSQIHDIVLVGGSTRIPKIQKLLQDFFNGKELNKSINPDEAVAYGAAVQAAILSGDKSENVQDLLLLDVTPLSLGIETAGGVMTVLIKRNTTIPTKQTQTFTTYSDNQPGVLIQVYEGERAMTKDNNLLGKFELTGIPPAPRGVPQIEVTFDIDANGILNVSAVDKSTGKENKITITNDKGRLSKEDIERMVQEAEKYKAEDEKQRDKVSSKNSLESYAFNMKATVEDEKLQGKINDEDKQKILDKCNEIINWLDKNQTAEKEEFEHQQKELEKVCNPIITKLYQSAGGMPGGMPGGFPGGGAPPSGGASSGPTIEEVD
UniProt O75907: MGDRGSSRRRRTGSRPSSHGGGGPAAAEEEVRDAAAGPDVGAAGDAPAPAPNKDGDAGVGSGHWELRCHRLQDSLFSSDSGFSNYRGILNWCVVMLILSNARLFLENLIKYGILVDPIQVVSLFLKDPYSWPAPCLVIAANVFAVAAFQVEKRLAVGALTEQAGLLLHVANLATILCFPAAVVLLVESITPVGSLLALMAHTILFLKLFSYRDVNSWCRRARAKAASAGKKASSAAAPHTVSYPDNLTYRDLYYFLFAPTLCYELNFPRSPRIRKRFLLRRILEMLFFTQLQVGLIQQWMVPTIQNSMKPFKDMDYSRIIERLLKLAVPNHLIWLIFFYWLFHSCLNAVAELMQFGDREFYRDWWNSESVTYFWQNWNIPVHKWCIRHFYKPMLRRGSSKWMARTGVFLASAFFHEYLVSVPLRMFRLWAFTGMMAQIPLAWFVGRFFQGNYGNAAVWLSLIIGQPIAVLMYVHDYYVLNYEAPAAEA

These are yes or no findings as the source states them, for the method shown. Binding seen in cells or lysates may run through a third protein.

For FLAG-DGAT1 Q149A (from UniProt O75907), the binding result is listed as “no binding”.

The record behind these values is paper PMC11864691.
